This is an account of results in PubChem BioAssay AID1487 (National Center for Advancing Translational Sciences (NCATS), 2009).

The structures appear in SMILES notation. The list shows a part of the results. Further columns of the screen follow, without active or inactive calls. Compounds called inactive in the main read-out are mostly missing here. Words in brackets tell the shape of the fitted curve; partial curves, single points and poor fits give uncertain potencies.

The term AC50 denotes the concentration at which the activity in the assay is half-maximal.

The nature of the test: qHTS Assay for Modulators of Lamin A Splicing. To be noted: HeLa LMNA splicing GFP/RFP minigene ratio, 48 h. A digest of the protocol: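 Read-out is the ratio of GFP to DsRed2 object intensity, acquired by 488 nm laser-scanning cytometry on HeLa lamin A-EGFP minigene reporter cells. Compound incubation 48 hrs at 37 °C in Opti-MEM with 2% FBS; DMSO 0.5% final.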
In general terms: Quantitative high-throughput screening tests each substance at several concentrations.

Where [1] appears, read: measured here: RFP viability control channel.
Where [2] appears, read: measured here: GFP splicing reporter channel.

Take `O=c1c(-c2nnc(SCc3ccc(Cl)c(Cl)c3)o2)cccn1Cc1ccccc1`: the AC50 under setting [1] was 14.1 µM [falling, single point]. For `O=C(c1ccc2c(c1)OCCO2)N(Cc1cccnc1)c1nc2c(F)cc(F)cc2s1`, the AC50 runs as follows: under setting [2], 0.501 µM [rising, full curve, poor fit]; under setting [1], 35.5 µM [rising, single point]. Turning to `CCn1c(=O)c(=O)[nH]c2cc(C(=O)NC3CCCc4ccccc43)ccc21` (configuration not stated), under setting [1], the AC50 is 28.2 µM [rising, single point]. With `Clc1cccc(OCCN2CCNCC2)c1`, the AC50 under setting [2] was 12.6 µM [falling, single point]. As for `NC(=O)c1c(NC(=O)c2cccs2)sc2c1CCCCCC2`, the AC50 under setting [1] is 25.1 µM [rising, single point]. `Cc1nnc(-c2ccc(Oc3ccc(Cl)cc3)c([N+](=O)[O-])c2)o1`: the AC50 reads like this: under setting [2], 12.6 µM [rising, partial curve, poor fit]; under setting [1], 35.5 µM [rising, single point]. In the case of `O=C(C[n+]1cc2ccccc2c2ccccc21)c1ccccc1`, under setting [1], the AC50 is 20 µM [rising, single point]. With `N#Cc1nccnc1S(=O)(=O)c1cccs1`, the AC50 is, setting by setting: under setting [2], 0.891 µM [falling, partial curve, poor fit]; under setting [1], 35.5 µM [falling, single point]. As to `CCCn1c(SCC(=O)N2CCCC(C)C2)nnc1-c1ccccn1` (configuration not stated), the AC50 under setting [1] was 11.2 µM [falling, partial curve, poor fit]. Turning to `Cc1cccc(CCNC(=O)CCc2c(C)nc3ncnn3c2C)c1`, the half-maximal activity concentration (AC50) runs as follows: under setting [2], 3.55 µM [falling, single point]; under setting [1], 5.01 µM [falling, partial curve, poor fit]. For `COc1ccc(NC(=O)NC23CC4(C)CC(C)(CC(C)(C4)C2)C3)cc1OC`, the concentration at half-maximal activity (AC50) under setting [1] was 7.08 µM [rising, partial curve, poor fit]. As for `CCOc1cc(C(=O)NC)cc(Br)c1OC`, under setting [1], the AC50 is 6.31 µM [rising, single point]. Still for that read-out and setting: the same measure for `O=C(N/N=C/C=C/c1ccccc1)c1cc2c(ccc3ccccc32)o1`: 11.2 µM [falling, partial curve, poor fit]. On to `O=C(c1ccco1)N1CCN(CC(O)COc2ccc3oc4ccccc4c3c2)CC1` (configuration not stated), for which the AC50 by setting is: under setting [2], 1.26 µM [rising, partial curve, poor fit]; under setting [1], 25.1 µM [rising, single point]. With `CCn1c2ccccc2c2cc(NC(=O)CSc3nnc(-c4cccc(C)c4)o3)ccc21`, under setting [1], the AC50 was 10 µM [rising, partial curve]. Turning to `O=C(NCC1(c2ccccc2)CCCC1)c1ccc(Br)cc1`, the AC50 reads like this: under setting [2], 35.5 µM [rising, single point]; under setting [1], 28.2 µM [rising, single point].
